Reference: article PMC7758049
No constants are given. Whether binding was seen depends on the method and setting. Binding seen in cells or lysates may run through a third protein. A yes stands for co-enrichment or nearness to the bait. Other partners may have been found.

T1: Enp1-TAP (S. cerevisiae) (UniProt P38333)
T1 sequence: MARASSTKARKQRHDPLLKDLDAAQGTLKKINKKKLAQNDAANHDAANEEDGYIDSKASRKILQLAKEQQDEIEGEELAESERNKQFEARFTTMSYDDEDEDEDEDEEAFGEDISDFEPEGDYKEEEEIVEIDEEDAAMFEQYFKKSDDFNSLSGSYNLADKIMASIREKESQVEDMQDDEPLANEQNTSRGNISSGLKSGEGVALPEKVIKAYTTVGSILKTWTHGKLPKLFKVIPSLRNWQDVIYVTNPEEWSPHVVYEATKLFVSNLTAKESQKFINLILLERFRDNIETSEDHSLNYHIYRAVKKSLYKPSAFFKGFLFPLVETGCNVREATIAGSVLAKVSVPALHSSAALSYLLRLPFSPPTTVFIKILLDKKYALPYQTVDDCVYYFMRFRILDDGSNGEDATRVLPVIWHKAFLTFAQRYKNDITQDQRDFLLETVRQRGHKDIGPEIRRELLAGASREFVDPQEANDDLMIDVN


target: T1, Enp1-TAP (S. cerevisiae); experiment: affinity purification with mass spectrometry; Enp1-TAP captured from yeast extract on rabbit IgG Dynabeads, TEV elution, pre-ribosomal particles pelleted through a sucrose cushion; excised gel bands and the whole sample by LC-MS/MS; cells with Bud23 (AJY2665) or depleted of Bud23-AID (AJY4395, 0.5 mM auxin, 2 hours); 50 mM Tris-HCl pH 7.6, 100 mM KCl, 5 mM MgCl2, 0.1% TritonX-100, 4°C

Row | binding | Binder
1 | binds | Bfr2 (protein, UniProt Q06631 1-534) MEKSLADQISDIAIKPVNKDFDIEDEENASLFQHNEKNGESDLSDYGNSNTEETKKAHYLEVEKSKLRAEKGLELNDPKYTGVKGSRQALYEEVSENEDEEEEEEEEEEKEEDALSFRTDSEDEEVEIDEEESDADGGETEEAQQKRHALSKLIQQETKQAINKLSQSVQRDASKGYSILQQTKLFDNIIDLRIKLQKAVIAANKLPLTTESWEEAKMDDSEETKRLLKENEKLFNNLFNRLINFRIKFQLGDHITQNEEVAKHKLSKKRSLKELYQETNSLDSELKEYRTAVLNKWSTKVSSASGNAALSSNKFKAINLPADVQVENQLSDMSRLMKRTKLNRRNITPLYFQKDCANGRLPELISPVVKDSVDDNENSDDGLDIPKNYDPRRKDNNAIDITENPYVFDDEDFYRVLLNDLIDKKISNAHNSESAAITITSTNARSNNKLKKNIDTKASKGRKLNYSVQDPIANYEAPITSGYKWSDDQIDEFFAGLLGQRVNFNENEDEEQHARIENDEELEAVKNDDIQIFG
2 | binds | Rrp12 (protein, UniProt Q12754 1-1228) MDQDKVAFLLELEDKLAKIRSQVNSKLENQKHIAIILTAVEENIAGQATNDVSKNIVNYIISFMSLLDQAVDPSTHEIKDIQLASSSTYLLDLIFHYSPKVLLRSKFSEILTKIAPCITAEKANAPLIRAAIGCLESLLIAQDAQAWNNTYDLNVTPKRGLQGILELSLDVRPKVRKRALDAVHAVLLNPPVAPTAEHVAAVFVADFCDKQLAGILNDLSNLSNKQLKAQKTKEDINASVMRSLRLITSVVSTGQWPSSQIEPLCDVLLGVTKSSEQYLVSASFECFESMFKTMAETTISSGLAENKYLRVLDTIFALKPSNVDTLLTKSWIAVVIKGMSTYATHQPLKALRKIPGVFHIMCTYLASETPEVYQAASQCLISILSESVKDDLLLYTPSVDEKVFKNVDEIISQIAKTFIDFLSIRYSHCSREILKILVAAFNKFRYRSNPHFLKSLKIVDTWRVNEEQFMDLRNEIELVIGASISAMGPEMILAEAPLNLDNPSSERPGRAWLLPLIRDYTKNANLATFQNELAPYIKSFQSKFDKVPEESIQLRVFQTIVDQIWSTLPRFCELPMDLRESFTDEFASELSSLLYSEVELRTTICHALKVLAESNVSYAEESSSHNVLLLQRFPISEAQKNIEYLSTKSTNLLAVLFNVYTQTTPNARSYILETIDQYLKITSKEDLEKTFNNVCGLLKNSMNEESSGNVNKEKKKPQLTATLLDLIICMITYLPVSSYSALFSMFSLTVNSADALIQKRAYRIITKLSELKSGSTAVAQFISDIENVMVDSASSVQTSAKAARLTAIKTIVELLPLDHLDFIVRTVAEVILSTKDVNEKSRETAFDTLICMGRKMNEPNGIIKLFQIPGYDPTTPDQSSSISEFFKIISAGLIGESQHMVSSSITGYACLVFEFKNELDSGILMDIYDTIELYLTSNSREIVKSAIGFTKVCVLGLPEELMRPKVPELLLKLLRWSHEHTGHFKAKVKHIIERLIRRFGYDYIEANFPEEDRRLLTNIRKMRNRNKRKDEEVTTGVSDVAATKGSRFMSAFDEAVYGSDEENDNGSDQEENVAGGKMKNGAKQFIVESGDNPLDLLDSQTLAHISSTRPKKFNKNQNRARFNDDAFNFDSEGKLVVKGQPKPSTNVDDPLSAVTSGINAYLEAVKSGPVRGQRNKLKFRKNGKDSDEFGDDDDGEKDSRLMRGRVNQGNKIGKHNKKGPKFKSRKKL
3 | binds | Lcp5 (protein, UniProt P40079 1-357) MSELNALLKDINGSLTATSESLERLSGIYSNSATDEIPESNQLHEHLFYDAKKPAEKVSLLSLKNGSMLGYINSLLMLIGNRLDDECKDPSAMDARERSIQHRVVLERGVKPLEKKLAYQLDKLTRAYVKMEKEYKDAEKRALEKSTLVNHSGNDDSEDDESSEDEIAYRPNTSGIINTNKKSSAYRVEETAKQENGEENDDNETGVYKPPKITAVLPPQQTHFEDRFDAREHKDRSNKSRMQAMEEYIRESSDQPDWSASIGADIVNHGRGGIKSLRDTEKERRVTSFEEDNFTRLNITNKAEKRKQKQRERNARMNVIGGEDFGIFSSKRKLEDSTSRRGAKKTRSAWDRAQRRL
4 | binds | Noc4 (protein, UniProt Q06512 1-552) MVLLISEIKDIAKRLTAAGDRKQYNSIIKLINELVIPENVTQLEEDETEKNLRFLVMSLFQIFRKLFSRGDLTLPSSKKSTLEKEQFVNWCRKVYEAFKTKLLAIISDIPFETSLGLDSLDVYLQLAELESTHFASEKGAPFFPNKTFRKLIIALWSSNMGEIEDVKSSGASENLIIVEFTEKYYTKFADIQYYFQSEFNQLLEDPAYQDLLLKNVGKWLALVNHDKHCSSVDADLEIFVPNPPQAIENESKFKSNFEKNWLSLLNGQLSLQQYKSILLILHKRIIPHFHTPTKLMDFLTDSYNLQSSNKNAGVVPILALNGLFELMKRFNLEYPNFYMKLYQIINPDLMHVKYRARFFRLMDVFLSSTHLSAHLVASFIKKLARLTLESPPSAIVTVIPFIYNLIRKHPNCMIMLHNPAFISNPFQTPDQVANLKTLKENYVDPFDVHESDPELTHALDSSLWELASLMEHYHPNVATLAKIFAQPFKKLSYNMEDFLDWNYDSLLNAESSRKLKTLPTLEFEAFTNVFDNEDGDSEASSQGNVYLPGVAW
5 | binds | Utp2 (endogenous) (protein, UniProt Q99207 1-810) MAGSQLKNLKAALKARGLTGQTNVKSKNKKNSKRQAKEYDREEKKKAIAEIREEFNPFEIKAARNKRRDGLPSKTADRIAVGKPGISKQIGEEQRKRAFEARKMMKNKRGGVIDKRFGERDKLLTEEEKMLERFTRERQSQSKRNANLFNLEDDEDDGDMFGDGLTHLGQSLSLEDELANDEEDFLASKRFNEDDAELQQPQRKKTKAEVMKEVIAKSKFYKQERQKAQGIMEDQIDNLDDNFEDVMSELMMTQPKKNPMEPKTDLDKEYDIKVKELQLDKRAAPSDRTKTEEEKNAEAEEKKRELEQQRLDRMNGMIELEEGEERGVEDLDDGFWENEEDYEDDNDGIADSDDDIKFEDQGRDEGFSQILKKKNISISCPRTHDALLDQVKKLDLDDHPKIVKNIIKAYQPKLAEGNKEKLGKFTAVLLRHIIFLSNQNYLKNVQSFKRTQNALISILKSLSEKYNRELSEECRDYINEMQARYKKNHFDALSNGDLVFFSIIGILFSTSDQYHLVITPALILMSQFLEQIKFNSLKRIAFGAVLVRIVSQYQRISKRYIPEVVYFFQKILLTFIVEKENQEKPLDFENIRLDSYELGLPLDVDFTKKRSTIIPLHTLSTMDTEAHPVDQCVSVLLNVMESLDATISTVWKSLPAFNEIILPIQQLLSAYTSKYSDFEKPRNILNKVEKLTKFTEHIPLALQNHKPVSIPTHAPKYEENFNPDKKSYDPDRTRSEINKMKAQLKKERKFTMKEIRKDAKFEARQRIEEKNKESSDYHAKMAHIVNTINTEEGAEKNKYERERKLRGGKK
6 | binds | Mrd1 (protein, UniProt Q06106 1-887) MSRIIVKGLPVYLTDDNLREHFTKRLRQKHSHQAVNGSGPDLITDVKILRDRNGESRRFGFIGYRNEEDAFDAVEYFNGSFINTSKIEVSMAKSFADPRVPQPMKEKRREALKRFREKEEKLLQEENRKKKKVDENKHSNIDDEIRKNKQLQEFMETMKPSSQVTSWEKVGIDKSIEDEKLKREEEDSSVQGNSLLAHALALKEENNKDEAPNLVIENESDDEYSALNRNRDEDQEDAGEEEKMISISNLKDTDIGLVNDDANSDEKENEKRRNLAQDEKVSDLDWFKQRRVRIKESEAETREKSSSYATEQNESLDTKKEEQPERAVPQKTDEELAIEKINQTGRLFLRNILYTSKEEDFRKLFSPFGELEEVHVALDTRTGQSKGFAYVLFKDSKNAVNAYVELDKQIFQGRLLHILPGEEKKSHRLDEFDLKNMPLKKQKELKRKAAASRQTFSWNSLYMNQDAVLGSVAAKLGLEKSQLIDAENSSSAVKQALAEAHVIGDVRKYFESKGVDLTKFSQLKSTNQRDDKVILVKNFPFGTTREELGEMFLPYGKLERLLMPPAGTIAIVQFRDTTSARAAFTKLSYKRFKDGIIYLERGPKDCFTKPAEADDLINNTSAKEEENPVEVKPSSNDLMEANKDVTEGSSNAHDEDVIDGPTVSIFIKNLNFSTTNQNLTDRFKVFTGFVVAQVKTKPDPKHQGKTLSMGFGFVEFRTKEQANAVIAAMDGTVIDGHKIQLKLSHRQASQSGNTKTKSNKKSGKIIVKNLPFEATRKDVFELFNSFGQLKSVRVPKKFDKSARGFAFVEFLLPKEAENAMDQLHGVHLLGRRLVMQYAEEDAVDAEEEIARMTKKVRKQVATNEMAALRNGGGRKKLDVDDEENEGF
